Measured values published in patent US9174917B2, “Bexarotene analogs” (Arizona Board of Regents on Behalf of Arizona State …, priority 2010, dated 2015).
Some entries share one result that the patent states for a list of compounds.

Test system: Saccharomyces cerevisiae
Assay: Mitotic gene conversion mutagenicity/toxicity assay in Saccharomyces cerevisiae
Conditions: increasing concentrations

C=C(c1ccc(C(=O)O)cc1)c1cc2c(cc1C)C(C)(C)CCC2(C)C [bexarotene]
mutagenicity: None of the compounds was mutagenic
